Measurements from the supplement of paper PMC10849652.
The list shows a part of the results.

Protein sequences, listed by entry. Tags and fused reporters are not part of them. Lines headed by an entry give the natural chain unless they say otherwise; changes in a name come on top.
UniProt Q9HAS0: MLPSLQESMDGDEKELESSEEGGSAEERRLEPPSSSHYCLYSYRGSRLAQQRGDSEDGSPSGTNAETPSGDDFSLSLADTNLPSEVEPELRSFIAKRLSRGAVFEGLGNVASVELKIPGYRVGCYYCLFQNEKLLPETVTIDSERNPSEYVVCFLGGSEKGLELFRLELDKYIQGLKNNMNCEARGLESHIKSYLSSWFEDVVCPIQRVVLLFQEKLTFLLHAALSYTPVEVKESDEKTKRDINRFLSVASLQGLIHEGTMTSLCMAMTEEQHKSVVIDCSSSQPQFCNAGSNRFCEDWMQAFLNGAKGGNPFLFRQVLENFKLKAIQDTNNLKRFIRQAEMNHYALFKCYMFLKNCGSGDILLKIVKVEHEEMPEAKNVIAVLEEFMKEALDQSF
UniProt Q96GQ5: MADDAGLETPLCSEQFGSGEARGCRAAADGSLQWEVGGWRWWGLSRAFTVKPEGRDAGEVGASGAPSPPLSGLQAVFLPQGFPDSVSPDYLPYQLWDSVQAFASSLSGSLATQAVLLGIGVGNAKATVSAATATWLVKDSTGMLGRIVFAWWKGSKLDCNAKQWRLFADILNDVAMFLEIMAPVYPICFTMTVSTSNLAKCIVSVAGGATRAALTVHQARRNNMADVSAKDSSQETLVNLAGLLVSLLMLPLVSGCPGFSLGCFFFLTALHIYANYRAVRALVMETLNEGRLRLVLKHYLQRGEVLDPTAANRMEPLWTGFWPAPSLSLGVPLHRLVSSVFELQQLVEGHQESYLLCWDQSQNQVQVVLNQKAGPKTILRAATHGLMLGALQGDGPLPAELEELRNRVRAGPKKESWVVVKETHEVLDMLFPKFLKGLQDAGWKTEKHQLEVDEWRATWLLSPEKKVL
UniProt Q9H425: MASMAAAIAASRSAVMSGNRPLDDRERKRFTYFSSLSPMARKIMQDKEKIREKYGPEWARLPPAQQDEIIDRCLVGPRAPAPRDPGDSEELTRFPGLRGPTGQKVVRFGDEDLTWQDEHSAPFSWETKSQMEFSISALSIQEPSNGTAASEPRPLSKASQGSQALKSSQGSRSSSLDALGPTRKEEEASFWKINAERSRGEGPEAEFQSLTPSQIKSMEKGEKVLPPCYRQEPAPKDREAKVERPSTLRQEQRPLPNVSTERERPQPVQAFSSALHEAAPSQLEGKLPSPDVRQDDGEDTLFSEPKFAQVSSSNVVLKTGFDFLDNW
UniProt Q6PH81: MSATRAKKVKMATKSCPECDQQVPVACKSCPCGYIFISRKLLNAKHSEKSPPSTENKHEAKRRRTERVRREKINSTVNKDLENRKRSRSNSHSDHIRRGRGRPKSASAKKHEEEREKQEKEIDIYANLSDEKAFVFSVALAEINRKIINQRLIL
UniProt Q9H0W9: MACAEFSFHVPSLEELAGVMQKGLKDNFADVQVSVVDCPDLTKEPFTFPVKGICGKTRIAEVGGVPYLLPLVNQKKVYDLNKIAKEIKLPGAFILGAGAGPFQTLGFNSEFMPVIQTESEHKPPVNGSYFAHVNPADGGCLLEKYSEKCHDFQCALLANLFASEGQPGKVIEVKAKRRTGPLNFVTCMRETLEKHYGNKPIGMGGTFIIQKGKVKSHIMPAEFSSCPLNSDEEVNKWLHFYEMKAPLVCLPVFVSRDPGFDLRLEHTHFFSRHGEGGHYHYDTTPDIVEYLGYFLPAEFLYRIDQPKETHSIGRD
UniProt Q9BXL7: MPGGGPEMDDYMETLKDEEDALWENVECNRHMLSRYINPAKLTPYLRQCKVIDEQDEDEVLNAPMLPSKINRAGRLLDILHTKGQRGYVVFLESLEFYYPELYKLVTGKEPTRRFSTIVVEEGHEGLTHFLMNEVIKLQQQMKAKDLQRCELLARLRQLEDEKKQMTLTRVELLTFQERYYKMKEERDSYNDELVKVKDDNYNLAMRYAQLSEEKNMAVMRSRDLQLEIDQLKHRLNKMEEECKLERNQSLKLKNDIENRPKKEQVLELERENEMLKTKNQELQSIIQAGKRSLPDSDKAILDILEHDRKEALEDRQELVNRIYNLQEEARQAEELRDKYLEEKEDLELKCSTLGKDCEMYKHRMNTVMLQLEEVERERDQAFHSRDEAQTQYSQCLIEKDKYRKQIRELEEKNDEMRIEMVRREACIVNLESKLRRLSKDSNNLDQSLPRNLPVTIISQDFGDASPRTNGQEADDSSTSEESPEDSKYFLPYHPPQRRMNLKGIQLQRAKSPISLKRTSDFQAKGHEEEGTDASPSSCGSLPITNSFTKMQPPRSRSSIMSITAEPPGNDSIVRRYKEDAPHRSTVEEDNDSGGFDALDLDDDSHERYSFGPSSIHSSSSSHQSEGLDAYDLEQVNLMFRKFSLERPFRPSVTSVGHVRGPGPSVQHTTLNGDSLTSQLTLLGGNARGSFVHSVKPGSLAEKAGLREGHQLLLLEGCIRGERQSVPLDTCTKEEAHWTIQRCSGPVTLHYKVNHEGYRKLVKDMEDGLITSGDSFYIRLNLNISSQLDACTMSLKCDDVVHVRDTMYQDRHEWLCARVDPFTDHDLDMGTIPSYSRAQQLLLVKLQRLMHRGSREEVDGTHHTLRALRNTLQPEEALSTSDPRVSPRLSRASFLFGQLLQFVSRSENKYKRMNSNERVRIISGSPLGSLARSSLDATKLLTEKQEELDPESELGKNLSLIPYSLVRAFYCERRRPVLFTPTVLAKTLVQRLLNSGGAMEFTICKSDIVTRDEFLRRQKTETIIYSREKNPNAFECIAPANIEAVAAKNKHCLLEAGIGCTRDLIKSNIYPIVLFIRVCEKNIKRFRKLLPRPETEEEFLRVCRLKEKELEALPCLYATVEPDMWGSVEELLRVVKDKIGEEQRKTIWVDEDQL
UniProt Q9Y6W3: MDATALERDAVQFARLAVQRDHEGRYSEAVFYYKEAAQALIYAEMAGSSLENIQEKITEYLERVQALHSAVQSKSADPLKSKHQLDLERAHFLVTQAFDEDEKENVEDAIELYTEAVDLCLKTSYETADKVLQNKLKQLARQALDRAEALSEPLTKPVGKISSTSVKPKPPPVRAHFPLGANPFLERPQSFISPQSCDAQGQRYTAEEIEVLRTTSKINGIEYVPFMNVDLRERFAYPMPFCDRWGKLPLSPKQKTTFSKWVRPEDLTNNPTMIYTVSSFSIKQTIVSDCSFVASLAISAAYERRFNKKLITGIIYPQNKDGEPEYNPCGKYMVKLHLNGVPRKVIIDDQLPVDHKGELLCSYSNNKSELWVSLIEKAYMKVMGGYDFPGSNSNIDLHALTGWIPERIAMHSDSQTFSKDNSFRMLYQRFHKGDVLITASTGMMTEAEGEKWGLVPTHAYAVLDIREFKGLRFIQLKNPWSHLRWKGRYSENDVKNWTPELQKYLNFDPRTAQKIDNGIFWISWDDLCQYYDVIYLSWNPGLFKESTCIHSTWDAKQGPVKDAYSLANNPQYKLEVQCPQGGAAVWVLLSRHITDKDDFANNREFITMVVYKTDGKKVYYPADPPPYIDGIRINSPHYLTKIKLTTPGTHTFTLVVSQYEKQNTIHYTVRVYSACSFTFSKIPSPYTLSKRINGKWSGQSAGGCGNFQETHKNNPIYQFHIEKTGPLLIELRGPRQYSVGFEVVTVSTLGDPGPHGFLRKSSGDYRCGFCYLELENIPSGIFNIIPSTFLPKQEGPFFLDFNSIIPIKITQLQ
UniProt O43852: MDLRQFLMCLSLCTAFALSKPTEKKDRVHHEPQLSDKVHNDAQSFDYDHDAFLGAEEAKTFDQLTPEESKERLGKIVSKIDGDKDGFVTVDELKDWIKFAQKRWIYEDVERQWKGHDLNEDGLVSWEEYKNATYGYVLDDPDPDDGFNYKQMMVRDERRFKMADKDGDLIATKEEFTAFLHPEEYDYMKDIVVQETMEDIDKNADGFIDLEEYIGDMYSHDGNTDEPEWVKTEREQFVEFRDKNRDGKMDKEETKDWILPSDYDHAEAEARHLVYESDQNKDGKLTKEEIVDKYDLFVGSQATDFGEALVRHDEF

Legend:
Assay in all cases: log2 fold change, soluble protein after heating vs DMSO (PISA); higher = thermal stabilisation; K562 lysate, 10 uM; active = over 0.2 and 3.5 SD of the protein, either way, in both replicates (recomputed)
lapatinib = compound: CS(=O)(=O)CCNCc1ccc(-c2ccc3ncnc(Nc4ccc(OCc5cccc(F)c5)c(Cl)c4)c3c2)o1 [lapatinib]
Method in brief: (§1)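 A 30 min treatment with 10 μM compound was applied to crude K562 extract at 1 mg/mL protein in PBS pH 7.4 with 1 mM MgCl2. Heating for 3 min spanned 48°C-58°C, after which aliquots were pooled, adjusted to 0.5% NP-40 at 4°C and spun at 21,000xg for 90 min. TMTpro 16plex LC-MS/MS of the supernatant, with channel sums equalised, gave values recorded as log-two fold change in thermal stability against solvent controls, from duplicates.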

pictilisib = compound: CS(=O)(=O)N1CCN(Cc2cc3nc(-c4cccc5[nH]ncc45)nc(N4CCOCC4)c3s2)CC1 [pictilisib]
Method in brief: as §1

crizotinib = compound: C[C@@H](Oc1cc(-c2cnn(C3CCNCC3)c2)cnc1N)c1c(Cl)ccc(F)c1Cl [crizotinib]
Method in brief: as §1

[1] = compound: C[C@H](C1=CC=C(C=C1)C(=O)NC2=C3C=CNC3=NC=C2)N
Method in brief: as §1

duvelisib = compound: C[C@H](Nc1ncnc2nc[nH]c12)c1cc2cccc(Cl)c2c(=O)n1-c1ccccc1 [duvelisib]
Method in brief: as §1

gandotinib = compound: Cc1cc(Nc2cc(CN3CCOCC3)c3nc(C)c(Cc4ccc(Cl)cc4F)n3n2)n[nH]1 [gandotinib]
Method in brief: as §1

tozasertib = compound: Cc1cc(Nc2cc(N3CCN(C)CC3)nc(Sc3ccc(NC(=O)C4CC4)cc3)n2)n[nH]1 [tozasertib]
Method in brief: as §1

doramapimod = compound: Cc1ccc(-n2nc(C(C)(C)C)cc2NC(=O)Nc2ccc(OCCN3CCOCC3)c3ccccc23)cc1 [doramapimod]
Method in brief: as §1

bafetinib = compound: Cc1ccc(NC(=O)c2ccc(CN3CC[C@H](N(C)C)C3)c(C(F)(F)F)c2)cc1Nc1nccc(-c2cncnc2)n1 [bafetinib]
Method in brief: as §1

[2] = compound: Cc1cccc(CC(=O)N2CCc3c2ccc(-c2cn(C)c4ncnc(N)c24)c3F)n1
Method in brief: as §1

nilotinib = compound: Cc1cn(-c2cc(NC(=O)c3ccc(C)c(Nc4nccc(-c5cccnc5)n4)c3)cc(C(F)(F)F)c2)cn1 [nilotinib]
Method in brief: as §1

[3] = compound: Cc1nc(Nc2n[nH]c3c2CN(C(=O)N[C@H](CN(C)C)c2ccccc2)C3(C)C)c2sccc2n1
Method in brief: as §1

dasatinib = compound: Cc1nc(Nc2ncc(C(=O)Nc3c(C)cccc3Cl)s2)cc(N2CCN(CCO)CC2)n1 [dasatinib]
Method in brief: as §1

[4] = compound: Cc1ncc(-c2ccnc(Nc3ccc(S(C)(=O)=O)cc3)n2)n1C(C)C
Method in brief: as §1

[5] = compound: Cn1cc(-c2ccc3c(c2)CCN3C(=O)Cc2cccc(C(F)(F)F)c2)c2c(N)ncnc21
Method in brief: as §1

quisinostat = compound: Cn1cc(CNCC2CCN(c3ncc(C(=O)NO)cn3)CC2)c2ccccc21 [quisinostat]
Method in brief: as §1

tipifarnib = compound: Cn1cncc1[C@@](N)(c1ccc(Cl)cc1)c1ccc2c(c1)c(-c1cccc(Cl)c1)cc(=O)n2C [tipifarnib]
Method in brief: as §1

[6] = compound: NC(=O)Nc1cc(-c2cccc(F)c2)sc1C(=O)N[C@H]1CCCNC1
Method in brief: as §1

[7] = compound: NC(=O)c1cnc(N[C@@H]2CCCC[C@@H]2N)nc1Nc1cccc(-n2nccn2)c1
Method in brief: as §1

[8] = compound: NC1(c2ccc(-c3nc4ccn5c(=O)[nH]nc5c4cc3-c3ccccc3)cc2)CCC1
Method in brief: as §1

| Target | log2 fold change (lapatinib) | log2 fold change (pictilisib) | log2 fold change (crizotinib) | log2 fold change [1] | log2 fold change (duvelisib) | log2 fold change (gandotinib) | log2 fold change (tozasertib) | log2 fold change (doramapimod) | log2 fold change (bafetinib) | log2 fold change [2] | log2 fold change (nilotinib) | log2 fold change [3] | log2 fold change (dasatinib) | log2 fold change [4] | log2 fold change [5] | log2 fold change (quisinostat) | log2 fold change (tipifarnib) | log2 fold change [6] | log2 fold change [7] | log2 fold change [8] |
| --- | --- | --- | --- | --- | --- | --- | --- | --- | --- | --- | --- | --- | --- | --- | --- | --- | --- | --- | --- | --- |
| C17orf75 (UniProt Q9HAS0) | inactive: -0.023 | inactive: -0.036 | inactive: -0.035 | inactive: -0.099 | inactive: 0.032 | inactive: 0.023 | inactive: 0.091 | inactive: 0.011 | inactive: 0.007 | inactive: 0.098 | inactive: -0.036 | inactive: 0.006 | inactive: 0.046 | inactive: 0 | inactive: 0.04 | inactive: -0.062 | inactive: -0.071 | inactive: -0.005 | inactive: -0.019 | inactive: 0.002 |
| C16orf58 (UniProt Q96GQ5) | inactive: -0.006 | inactive: -0.035 | inactive: -0.084 | inactive: 0.034 | inactive: 0.067 | inactive: -0.114 | inactive: 0.066 | inactive: -0.011 | inactive: -0.073 | inactive: 0.122 | inactive: -0.016 | inactive: -0.011 | inactive: -0.075 | inactive: 0.033 | inactive: -0.042 | inactive: 0.06 | inactive: -0.05 | inactive: -0.011 | inactive: 0.021 | inactive: -0.042 |
| C1orf198 (UniProt Q9H425) | inactive: 0.034 | inactive: 0.005 | inactive: -0.002 | inactive: -0.098 | inactive: -0.03 | inactive: 0.138 | inactive: -0.021 | inactive: 0.083 | inactive: -0.048 | inactive: 0.046 | inactive: 0.103 | inactive: 0.261 | inactive: 0.133 | inactive: -0.084 | inactive: 0.005 | inactive: 0.013 | inactive: -0.031 | inactive: 0.009 | inactive: -0.029 | inactive: -0.021 |
| C16orf87 (UniProt Q6PH81) | inactive: -0.021 | inactive: 0.039 | inactive: -0.067 | inactive: 0.252 | inactive: -0.009 | inactive: -0.002 | inactive: -0.192 | inactive: 0.166 | inactive: 0.07 | inactive: 0.033 |  |  | inactive: -0.013 |  | inactive: -0.009 | inactive: 0.056 |  | inactive: -0.119 | inactive: -0.099 |  |
| C11orf54 (UniProt Q9H0W9) | inactive: -0.002 | inactive: -0.016 | inactive: -0.025 | inactive: 0.001 | inactive: 0.055 | inactive: 0.011 | inactive: -0.027 | inactive: -0.031 | inactive: 0.006 | inactive: 0.013 | inactive: 0.054 | inactive: -0.008 | inactive: 0.012 | inactive: 0.031 | inactive: -0.05 | inactive: 0.042 | inactive: 0.018 | inactive: 0.003 | inactive: -0.014 | inactive: -0.002 |
| CARD11 (UniProt Q9BXL7) | inactive: 0.001 | active: -0.287 | inactive: -0.018 | inactive: -0.025 | inactive: 0.029 | inactive: -0.035 | inactive: -0.021 | inactive: 0.028 | inactive: -0.059 | inactive: 0.038 | inactive: -0.047 | inactive: 0.04 | inactive: -0.053 | inactive: 0.043 | inactive: 0.004 | inactive: -0.031 | inactive: -0.015 | inactive: 0.025 | inactive: 0.048 | inactive: 0.009 |
| CAPN7 (UniProt Q9Y6W3) | inactive: -0.003 | inactive: -0.026 | inactive: -0.055 | inactive: 0.01 | inactive: -0.018 | inactive: -0.016 | inactive: 0.016 | inactive: 0.014 | inactive: -0.021 | inactive: 0.012 | inactive: 0.022 | inactive: -0.018 | inactive: 0.016 | inactive: -0.036 | inactive: 0.035 | inactive: -0.012 | inactive: 0.009 | inactive: -0.002 | inactive: 0.006 | inactive: -0.022 |
| CALU isoform 4 (UniProt O43852) | inactive: -0.038 | inactive: -0.043 | inactive: 0.05 | inactive: -0.076 | inactive: 0.025 | inactive: 0.06 | inactive: 0.026 | inactive: 0 | inactive: -0.03 | inactive: -0.02 | inactive: -0.014 | inactive: 0.011 | inactive: 0.051 | inactive: 0.015 | inactive: 0.043 | inactive: -0.066 | inactive: 0.054 | inactive: 0.017 | inactive: -0.003 | inactive: 0.013 |
